Assay [1] has as its target Flag-tagged CacyBP (Calcyclin-Binding Protein and Siah-1 Interacting Protein) (human) (UniProt Q9HB71). Put plainly: co-IP; HEK293T cells transiently co-transfected with Flag- and HA-tagged constructs; lysis and washes in NETN buffer (100 mM NaCl, 20 mM Tris-Cl pH 8.0, 0.5 mM EDTA, 0.5% IGEPAL); Flag-agarose beads at 4 °C overnight; western blotting.
For assay [2], the target named is Myd88 in HCC cells (co-immunoprecipitation) (human) (UniProt Q99836). Put plainly: co-IP; immunoprecipitation of Siah-1 and Myd88 after CacyBP depletion or overexpression in PLC/PRF/5 or Huh7 cells (competition).
For assay [3] the target is unchanged. Put plainly: co-IP; HCC cells transfected with the indicated plasmids; co-immunoprecipitation of Siah-1 and Myd88; western blotting.
In assay [4] the target is Myd88 detected in situ in PLC/PRF/5 and Huh7 cells (proximity ligation assay) (human) (UniProt Q99836). Put plainly: proximity ligation; Duolink In Situ Red kit Mouse/Rabbit on fixed, permeabilised PLC/PRF/5 and Huh7 cells after CacyBP silencing or overexpression; confocal microscopy.
Assay [5] concerns the target Flag-tagged Myd88 △DD (human) (UniProt Q99836). Nature of the assay: co-IP; HEK293T cells transiently co-transfected with Flag- and HA-tagged constructs; lysis and washes in NETN buffer (100 mM NaCl, 20 mM Tris-Cl pH 8.0, 0.5 mM EDTA, 0.5% IGEPAL); Flag-agarose beads at 4 °C overnight; western blotting. Background: A western blot detects proteins with antibodies after separation by electrophoresis.

The chains behind the UniProt entries cited, without tags or fusion partners. Where a name states a change or a piece, a line headed by the entry shows the natural chain unless it says otherwise. A line that says so, or that is headed by a name, gives the form on record, which may keep a tag or linker.
UniProt Q9HB71: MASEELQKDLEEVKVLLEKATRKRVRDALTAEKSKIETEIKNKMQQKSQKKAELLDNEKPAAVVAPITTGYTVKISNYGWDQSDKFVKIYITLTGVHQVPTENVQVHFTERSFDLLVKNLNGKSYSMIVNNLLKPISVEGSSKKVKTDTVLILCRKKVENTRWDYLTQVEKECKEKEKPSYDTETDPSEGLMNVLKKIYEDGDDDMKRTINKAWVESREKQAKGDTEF
UniProt Q99836: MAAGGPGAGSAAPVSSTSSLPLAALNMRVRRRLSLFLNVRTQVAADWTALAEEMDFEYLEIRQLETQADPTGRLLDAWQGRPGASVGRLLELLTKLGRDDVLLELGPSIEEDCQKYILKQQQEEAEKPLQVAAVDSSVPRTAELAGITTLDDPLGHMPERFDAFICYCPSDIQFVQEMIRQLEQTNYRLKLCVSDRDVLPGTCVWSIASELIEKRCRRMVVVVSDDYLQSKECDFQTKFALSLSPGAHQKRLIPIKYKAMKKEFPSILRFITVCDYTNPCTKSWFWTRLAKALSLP
Flag-tagged Myd88 △DD (Q99836, form named): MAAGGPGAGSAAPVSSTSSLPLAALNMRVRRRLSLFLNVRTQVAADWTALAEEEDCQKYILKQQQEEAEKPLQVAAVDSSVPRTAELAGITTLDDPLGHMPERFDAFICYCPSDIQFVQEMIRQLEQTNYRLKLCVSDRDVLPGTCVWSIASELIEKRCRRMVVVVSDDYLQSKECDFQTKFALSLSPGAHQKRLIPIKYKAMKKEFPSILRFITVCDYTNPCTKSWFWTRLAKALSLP
Flag-tagged Myd88 △INT (Q99836, form named): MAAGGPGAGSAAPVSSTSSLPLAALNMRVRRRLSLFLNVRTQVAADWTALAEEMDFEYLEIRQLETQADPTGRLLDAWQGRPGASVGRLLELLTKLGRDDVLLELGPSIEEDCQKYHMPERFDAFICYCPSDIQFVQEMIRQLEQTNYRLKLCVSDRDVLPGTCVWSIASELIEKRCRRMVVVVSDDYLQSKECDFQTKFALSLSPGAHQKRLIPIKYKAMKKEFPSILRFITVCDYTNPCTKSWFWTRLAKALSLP

For assay [6], the target named is Flag-tagged Myd88 △INT (human) (UniProt Q99836). The description is as above.
Assay [7] deals with Flag-tagged CacyBP (Calcyclin-Binding Protein and Siah-1 Interacting Protein) (human) (UniProt Q9HB71). The description is as above. This is another data set of the same source.
Assay [8] addresses Flag-tagged Myd88 (human) (UniProt Q99836). Described as above.

Like-named read-outs stand apart in the source and are kept apart here. No constants are given. Whether binding was seen depends on the method and setting. In cells and extracts the contact can be indirect. Some binding calls cover weakened binding; strength is not graded here. For some assays here: Where a sequence is shown, tags or fusion partners need not be part of it.

As for “HA-tagged Myd88 (from UniProt Q99836 1-296)”, in assay [1], the binding result is on record as “binds”.

B1: Siah-1 in HCC cells (co-immunoprecipitation) (enzyme, UniProt Q8IUQ4 1-282)
chain: MSRQTATALPTGTSKCPPSQRVPALTGTTASNNDLASLFECPVCFDYVLPPILQCQSGHLVCSNCRPKLTCCPTCRGPLGSIRNLAMEKVANSVLFPCKYASSGCEITLPHTEKADHEELCEFRPYSCPCPGASCKWQGSLDAVMPHLMHQHKSITTLQGEDIVFLATDINLPGAVDWVMMQSCFGFHFMLVLEKQEKYDGHQQFFAIVQLIGTRKQAENFAYRLELNGHRRRLTWEATPRSIHEGIATAIMNSDCLVFDTSIAQLFAENGNLGINVTISMC
On to B1, for which the binding result in assay [2] and in assay [3] was “binds” in each case.

B2: Siah-1 detected in situ in PLC/PRF/5 and Huh7 cells (proximity ligation assay) (enzyme, UniProt Q8IUQ4 1-282)
chain: MSRQTATALPTGTSKCPPSQRVPALTGTTASNNDLASLFECPVCFDYVLPPILQCQSGHLVCSNCRPKLTCCPTCRGPLGSIRNLAMEKVANSVLFPCKYASSGCEITLPHTEKADHEELCEFRPYSCPCPGASCKWQGSLDAVMPHLMHQHKSITTLQGEDIVFLATDINLPGAVDWVMMQSCFGFHFMLVLEKQEKYDGHQQFFAIVQLIGTRKQAENFAYRLELNGHRRRLTWEATPRSIHEGIATAIMNSDCLVFDTSIAQLFAENGNLGINVTISMC
Regarding B2, in assay [4], the binding result was “binds”.

B3: HA-tagged Siah-1 (enzyme, UniProt Q8IUQ4 1-282)
chain: MSRQTATALPTGTSKCPPSQRVPALTGTTASNNDLASLFECPVCFDYVLPPILQCQSGHLVCSNCRPKLTCCPTCRGPLGSIRNLAMEKVANSVLFPCKYASSGCEITLPHTEKADHEELCEFRPYSCPCPGASCKWQGSLDAVMPHLMHQHKSITTLQGEDIVFLATDINLPGAVDWVMMQSCFGFHFMLVLEKQEKYDGHQQFFAIVQLIGTRKQAENFAYRLELNGHRRRLTWEATPRSIHEGIATAIMNSDCLVFDTSIAQLFAENGNLGINVTISMC
As to B3, the binding result in assay [5], in assay [6], in assay [7] and in assay [8] was “binds” throughout.

The record behind these values is publication PMC10652496.
